Results published in article PMC3672163.
These are yes or no findings as the source states them, for the method shown. In cells and extracts the contact can be indirect. Some entries that bind do so weakly or less than the wild type.

Chains of the proteins cited; added tags and fusions are not shown. Lines headed by an entry give the natural chain unless they say otherwise; changes in a name come on top. Residues count along the entry.
UniProt O95235: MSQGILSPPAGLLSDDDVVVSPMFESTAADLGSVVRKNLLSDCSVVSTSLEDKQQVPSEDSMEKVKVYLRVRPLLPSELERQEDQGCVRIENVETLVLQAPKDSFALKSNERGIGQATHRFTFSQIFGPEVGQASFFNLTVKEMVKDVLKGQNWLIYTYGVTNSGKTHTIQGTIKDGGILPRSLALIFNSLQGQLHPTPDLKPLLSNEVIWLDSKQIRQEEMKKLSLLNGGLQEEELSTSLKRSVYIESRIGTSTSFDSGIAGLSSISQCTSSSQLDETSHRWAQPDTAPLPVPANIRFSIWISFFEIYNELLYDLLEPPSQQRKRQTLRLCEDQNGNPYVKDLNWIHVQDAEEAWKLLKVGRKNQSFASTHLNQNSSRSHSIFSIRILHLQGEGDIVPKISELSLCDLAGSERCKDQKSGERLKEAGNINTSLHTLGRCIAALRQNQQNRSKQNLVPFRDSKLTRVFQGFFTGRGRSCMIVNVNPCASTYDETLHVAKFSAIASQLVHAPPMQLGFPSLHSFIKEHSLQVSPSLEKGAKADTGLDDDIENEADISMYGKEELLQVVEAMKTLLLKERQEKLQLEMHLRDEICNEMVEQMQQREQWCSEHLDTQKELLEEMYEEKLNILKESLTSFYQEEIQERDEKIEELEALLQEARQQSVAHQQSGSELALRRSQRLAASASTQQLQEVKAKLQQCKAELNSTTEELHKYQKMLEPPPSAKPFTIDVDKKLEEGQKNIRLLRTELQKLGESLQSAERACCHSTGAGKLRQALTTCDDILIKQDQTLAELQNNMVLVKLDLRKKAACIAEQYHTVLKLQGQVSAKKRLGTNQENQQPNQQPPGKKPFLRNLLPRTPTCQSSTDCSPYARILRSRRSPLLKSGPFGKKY
HA-MKlp2(1-842): residues 1-842 of O95235
UniProt Q96GD4: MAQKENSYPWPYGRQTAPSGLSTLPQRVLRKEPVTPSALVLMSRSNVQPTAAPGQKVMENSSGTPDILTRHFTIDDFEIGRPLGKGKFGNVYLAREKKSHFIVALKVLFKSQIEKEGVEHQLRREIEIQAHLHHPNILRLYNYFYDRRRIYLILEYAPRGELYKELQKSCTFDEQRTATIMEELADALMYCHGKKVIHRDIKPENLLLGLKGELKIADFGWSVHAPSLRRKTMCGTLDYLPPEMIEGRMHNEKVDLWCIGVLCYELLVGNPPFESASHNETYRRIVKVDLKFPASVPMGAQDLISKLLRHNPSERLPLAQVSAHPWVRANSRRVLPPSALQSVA
UniProt P53350: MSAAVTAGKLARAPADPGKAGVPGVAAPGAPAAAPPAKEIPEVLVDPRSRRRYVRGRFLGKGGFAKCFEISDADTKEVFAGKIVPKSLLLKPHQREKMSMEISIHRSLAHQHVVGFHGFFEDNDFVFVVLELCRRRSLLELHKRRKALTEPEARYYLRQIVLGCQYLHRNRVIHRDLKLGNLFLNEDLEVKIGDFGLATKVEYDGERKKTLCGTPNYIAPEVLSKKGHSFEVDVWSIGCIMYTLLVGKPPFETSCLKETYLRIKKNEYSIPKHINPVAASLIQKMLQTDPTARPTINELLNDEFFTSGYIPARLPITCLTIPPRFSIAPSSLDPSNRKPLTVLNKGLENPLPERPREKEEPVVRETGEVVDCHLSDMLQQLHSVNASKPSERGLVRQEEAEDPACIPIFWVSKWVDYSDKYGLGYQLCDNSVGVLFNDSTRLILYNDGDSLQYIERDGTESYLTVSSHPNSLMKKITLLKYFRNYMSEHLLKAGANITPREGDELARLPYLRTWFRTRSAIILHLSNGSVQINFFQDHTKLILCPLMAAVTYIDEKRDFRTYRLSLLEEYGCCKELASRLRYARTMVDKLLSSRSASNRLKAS

Assays:
HA-MKlp2(1-842) = HA-MKlp2(1-842) (UniProt O95235); assay: co-IP; HeLa cell lysates expressing HA-MKlp2 with Flag-Aurora B or Flag-Plk1; immunoprecipitation with antibodies against HA (Figure S2D)
HA-MKlp2(1-890) = HA-MKlp2(1-890) (UniProt O95235); assay: as above

| Substance | binding (HA-MKlp2(1-842)) | binding (HA-MKlp2(1-890)) |
| --- | --- | --- |
| Flag-Aurora B (from UniProt Q96GD4 1-344) (enzyme) | binds | binds |
| Flag-Plk1 (from UniProt P53350 1-603) (enzyme) | binds | binds |
